Assay results reported in paper PMC5464861.
Where two headings read alike, the source gives them in different places. No constants are given. Whether binding was seen depends on the method and setting. Binding seen in cells or lysates may run through a third protein. A result given as binding can be weak or reduced; the word gives no strength. Values belong to the molecule of their own block, whether it stands above or below them.

Sequences of proteins named here, by UniProt entry; tags and fusion partners are left off. A change or cut given only in a name is not applied to a line headed by its entry.
UniProt O00571: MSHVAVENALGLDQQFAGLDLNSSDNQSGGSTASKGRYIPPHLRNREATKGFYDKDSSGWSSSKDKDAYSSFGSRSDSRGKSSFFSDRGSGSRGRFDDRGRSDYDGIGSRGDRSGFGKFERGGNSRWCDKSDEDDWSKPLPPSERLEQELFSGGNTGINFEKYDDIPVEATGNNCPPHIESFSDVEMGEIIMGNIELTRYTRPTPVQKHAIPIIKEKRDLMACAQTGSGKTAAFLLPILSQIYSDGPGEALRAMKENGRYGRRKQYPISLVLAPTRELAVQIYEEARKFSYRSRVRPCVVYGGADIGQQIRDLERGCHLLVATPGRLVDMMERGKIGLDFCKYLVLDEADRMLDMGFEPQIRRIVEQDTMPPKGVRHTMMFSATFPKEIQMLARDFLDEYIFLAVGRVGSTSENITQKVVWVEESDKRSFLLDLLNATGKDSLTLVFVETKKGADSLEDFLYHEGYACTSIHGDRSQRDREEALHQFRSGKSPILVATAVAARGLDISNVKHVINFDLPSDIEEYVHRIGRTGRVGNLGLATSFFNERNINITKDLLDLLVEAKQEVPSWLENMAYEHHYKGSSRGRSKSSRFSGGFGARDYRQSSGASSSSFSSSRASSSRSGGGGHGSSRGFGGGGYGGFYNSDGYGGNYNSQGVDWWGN
UniProt P67775: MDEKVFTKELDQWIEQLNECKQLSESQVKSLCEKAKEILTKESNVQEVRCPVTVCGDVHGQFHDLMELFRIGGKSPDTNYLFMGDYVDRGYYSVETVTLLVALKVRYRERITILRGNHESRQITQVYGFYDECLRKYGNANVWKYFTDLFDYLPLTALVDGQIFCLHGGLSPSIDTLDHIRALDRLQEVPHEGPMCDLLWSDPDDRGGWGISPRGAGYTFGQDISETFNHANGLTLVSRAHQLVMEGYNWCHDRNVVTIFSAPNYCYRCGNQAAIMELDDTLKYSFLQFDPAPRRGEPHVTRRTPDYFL

Key:
[1] = target: Flag-tagged DDX3 (human (cDNA from HeLa cells)) (UniProt O00571); test: co-IP; HeLa, HEK-293T and HepG2 cells co-transfected with HA-tagged PP2A-C and Flag-tagged DDX3 for 48 h; lysate precipitated with anti-Flag antibody, blot with anti-HA or anti-Flag
[2] = target: endogenous PP2A-C subunit (human (endogenous in HeLa)) (UniProt P67775); test: co-IP; endogenous proteins in HeLa cells transfected with siNC or siDDX3 for 48 h; precipitated with anti-PP2A-C or rabbit IgG, blot for IKK-β
[3] = target: endogenous DDX3 (human (endogenous in HeLa)) (UniProt O00571); test: co-IP; endogenous proteins; lysate (50 mM Tris-HCl pH 7.4, 150 mM NaCl, 1 mM EDTA, 1% NP-40) precipitated with DDX3 mouse antibody or mouse IgG on protein G agarose at 4°C, blot for PP2A-C; HeLa, by the text also HEK-293T and HepG2
[4] = target: endogenous PP2A-C subunit (human (endogenous in HeLa)) (UniProt P67775); test: co-IP; endogenous proteins in HeLa cells transfected with siNC or siDDX3 for 48 h; precipitated with anti-PP2A-C or rabbit IgG, blot for IKK-β; remark: listed apart in the source

binding [2]: binds
Molecule: endogenous DDX3 (from UniProt O00571 1-662)

binding [3]: binds
Molecule: endogenous PP2A-C subunit (from UniProt P67775)

The next lines start with the molecule.

Molecule: HA-tagged PP2A-C subunit (from UniProt P67775)
binding [1]: binds

B1: endogenous IKK-β (protein, UniProt O14920 1-756)
chain: MSWSPSLTTQTCGAWEMKERLGTGGFGNVIRWHNQETGEQIAIKQCRQELSPRNRERWCLEIQIMRRLTHPNVVAARDVPEGMQNLAPNDLPLLAMEYCQGGDLRKYLNQFENCCGLREGAILTLLSDIASALRYLHENRIIHRDLKPENIVLQQGEQRLIHKIIDLGYAKELDQGSLCTSFVGTLQYLAPELLEQQKYTVTVDYWSFGTLAFECITGFRPFLPNWQPVQWHSKVRQKSEVDIVVSEDLNGTVKFSSSLPYPNNLNSVLAERLEKWLQLMLMWHPRQRGTDPTYGPNGCFKALDDILNLKLVHILNMVTGTIHTYPVTEDESLQSLKARIQQDTGIPEEDQELLQEAGLALIPDKPATQCISDGKLNEGHTLDMDLVFLFDNSKITYETQISPRPQPESVSCILQEPKRNLAFFQLRKVWGQVWHSIQTLKEDCNRLQQGQRAAMMNLLRNNSCLSKMKNSMASMSQQLKAKLDFFKTSIQIDLEKYSEQTEFGITSDKLLLAWREMEQAVELCGRENEVKLLVERMMALQTDIVDLQRSPMGRKQGGTLDDLEEQARELYRRLREKPRDQRTEGDSQEMVRLLLQAIQSFEKKVRVIYTQLSKTVVCKQKALELLPKVEEVVSLMNEDEKTVVRLQEKRQKELWNLLKIACSKVRGPVSGSPDSMNASRLSQPGQLMSQPSTASNSLPEPAKKSEELVAEAHNLCTLLENAIQDTVREQDQSFTALDWSWLQTEEEEHSCLEQAS
binding [4]: binds
